No constants are given. Whether binding was seen depends on the method and setting. In cells and extracts the contact can be indirect. A result given as binding can be weak or reduced; the word gives no strength. Sequences can lack the tags named with a protein.
T1: truncated His6-tagged CvnA8 (residues 81-505) (Streptomyces coelicolor) (UniProt Q9KYJ8)
T1 sequence: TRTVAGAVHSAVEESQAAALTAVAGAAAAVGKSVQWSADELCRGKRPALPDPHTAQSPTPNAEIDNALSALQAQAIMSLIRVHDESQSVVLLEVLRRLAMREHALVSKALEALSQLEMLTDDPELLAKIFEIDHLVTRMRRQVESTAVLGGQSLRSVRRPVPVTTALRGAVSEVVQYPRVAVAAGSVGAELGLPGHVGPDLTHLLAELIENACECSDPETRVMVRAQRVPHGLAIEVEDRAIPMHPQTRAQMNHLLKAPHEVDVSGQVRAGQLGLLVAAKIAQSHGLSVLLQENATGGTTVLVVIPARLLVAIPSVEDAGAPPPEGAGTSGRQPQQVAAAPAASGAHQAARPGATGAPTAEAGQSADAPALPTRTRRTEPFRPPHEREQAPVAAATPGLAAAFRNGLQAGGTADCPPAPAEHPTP

Sequences of proteins named here, by UniProt entry; tags and fusion partners are left off. A change or cut given only in a name is not applied to a line headed by its entry.
UniProt Q9KYK2: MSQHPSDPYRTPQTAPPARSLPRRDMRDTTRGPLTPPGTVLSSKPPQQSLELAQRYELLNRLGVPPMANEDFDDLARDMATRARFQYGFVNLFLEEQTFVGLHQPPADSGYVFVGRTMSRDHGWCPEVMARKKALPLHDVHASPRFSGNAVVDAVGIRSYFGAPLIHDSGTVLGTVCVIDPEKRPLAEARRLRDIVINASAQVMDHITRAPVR


Columns and labels:
[1] = molecular target: T1, truncated His6-tagged CvnA8 (residues 81-505) (Streptomyces coelicolor); test: pull-down; lysate of E. coli co-expressing both proteins incubated with Ni-NTA resin 1 h at 4°C (His6-CvnA8 81-505 as bait); 50 mM Tris-HCl pH 8.0, 300 mM NaCl, 5 mM MgCl2; washes with 50 mM imidazole, elution with 300 mM imidazole; anti-His and anti-Strep western blots; n = 3
[2] = molecular target: full-length Strep-tagged CvnF8 (Streptomyces coelicolor) (UniProt Q9KYK2); test: pull-down; lysate of E. coli co-expressing both proteins incubated with Strep-Tactin Sepharose beads 1 h at 4°C (Strep-CvnF8 as bait); 50 mM Tris-HCl pH 8.0, 300 mM NaCl, 5 mM MgCl2; elution with 50 mM D-desthiobiotin; anti-His and anti-Strep western blots; n = 3

binding [1]	binding [2]	Molecule
binds		full-length Strep-tagged CvnF8 (from UniProt Q9KYK2)
	binds	truncated His6-tagged CvnA8 (residues 81-505) (domain or fragment, UniProt Q9KYJ8 81-505) TRTVAGAVHSAVEESQAAALTAVAGAAAAVGKSVQWSADELCRGKRPALPDPHTAQSPTPNAEIDNALSALQAQAIMSLIRVHDESQSVVLLEVLRRLAMREHALVSKALEALSQLEMLTDDPELLAKIFEIDHLVTRMRRQVESTAVLGGQSLRSVRRPVPVTTALRGAVSEVVQYPRVAVAAGSVGAELGLPGHVGPDLTHLLAELIENACECSDPETRVMVRAQRVPHGLAIEVEDRAIPMHPQTRAQMNHLLKAPHEVDVSGQVRAGQLGLLVAAKIAQSHGLSVLLQENATGGTTVLVVIPARLLVAIPSVEDAGAPPPEGAGTSGRQPQQVAAAPAASGAHQAARPGATGAPTAEAGQSADAPALPTRTRRTEPFRPPHEREQAPVAAATPGLAAAFRNGLQAGGTADCPPAPAEHPTP
